Measurements from PubChem BioAssay AID2718 (Broad Institute, 2010).
Among all 320,000 compounds or so, about 480 (0.15%) were called active. Inconclusive means that the source gave no clear call. Such entries were picked first, then a sample of the others. Rule as the data show it: active = inhibition above about 26% (passing the limit was not always enough); inconclusive = no clear call, values can overlap the other calls.

The chains behind the UniProt entries cited, without tags or fusion partners. Where a name states a change or a piece, a line headed by the entry shows the natural chain unless it says otherwise.
UniProt O15379: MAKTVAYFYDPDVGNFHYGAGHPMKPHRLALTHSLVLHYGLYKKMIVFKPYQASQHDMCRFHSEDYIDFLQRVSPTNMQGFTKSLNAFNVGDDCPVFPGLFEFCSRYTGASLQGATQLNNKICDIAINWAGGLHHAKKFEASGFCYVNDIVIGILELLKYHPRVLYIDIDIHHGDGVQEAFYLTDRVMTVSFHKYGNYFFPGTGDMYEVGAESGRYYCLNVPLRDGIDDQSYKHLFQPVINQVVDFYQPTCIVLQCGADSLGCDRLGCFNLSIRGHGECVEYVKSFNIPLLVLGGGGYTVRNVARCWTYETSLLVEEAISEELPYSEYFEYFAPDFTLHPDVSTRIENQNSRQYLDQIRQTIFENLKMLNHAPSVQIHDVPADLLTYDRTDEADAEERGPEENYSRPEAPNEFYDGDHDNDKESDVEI

molecular target: Histone deacetylase 3 (Homo sapiens) (UniProt O15379); experiment: HDAC3 deacetylase inhibitors, primary screen, biochemical, fluorescence, cell-free homogeneous (AID 2718); conditions: recombinant HDAC3, fluorogenic peptide/trypsin coupled, at 8.3 µM, stronger effect = higher value

Structure (SMILES) | inhibition
COc1cc(C)c(NC(=O)COc2ccc3c(c2)CCC3)cc1OC | inconclusive: 52.4%
COc1cc(/C=N/N=C(\N)c2nonc2N)ccc1O | inconclusive: 18.7%
N=c1n(CC(=O)c2ccc([N+](=O)[O-])cc2)c2ccccc2n1Cc1ccc(Cl)cc1 | inconclusive: 25.8%
CCOC(=O)c1cc(-c2ccc(/C=C3/C(=O)N(c4ccc(C(=O)O)cc4)N=C3C)o2)ccc1Cl | inactive: -3.65%
CCOC(=O)N1CCN(C(=O)C2CCN(S(=O)(=O)N(CC)CC)CC2)CC1 | inconclusive: 20%
COc1ccccc1-c1nnc2n1N=C(c1ccc(OC(F)F)c(OCC3CC3)c1)CS2 | inconclusive: 15.8%
CCNc1nc(C)nc2c1oc1ccccc12 | inactive: 0.909%
Cc1ccc(S(=O)(=O)n2nc(OC(=O)c3ccco3)cc2N)cc1 | active: 58.2%
Oc1ccc(-c2nccc(-c3cccs3)n2)cc1 | inconclusive: 18.5%
Cc1ccc(CS(=O)Cc2ccc(C(=O)NCC(C)c3ccccc3)o2)cc1 (stereo not drawn) | inconclusive: 18.4%
CNc1snc(C)c1C(=O)OC(C)C(=O)Nc1cccc(C)c1 (stereo not drawn) | inactive: -0.718%
O=C(Nc1ccccc1C(=O)OCn1nnc2ccccc2c1=O)c1ccco1 | inactive: 5.84%
C=CCC[C@H](Cc1ccc(F)cc1)C(=O)OC[C@H](Cc1c[nH]c2ccccc12)NC(=O)[C@@H](CC=C)CC(=O)NCCO | active: 30.7%
Cc1ccccc1C(=O)Nc1nc(SCc2ccc(Cl)cc2)n[nH]1 | inconclusive: 27.3%
Brc1ccc(CNCCCSc2ncccn2)cc1 | active: 34.5%
Cc1cccc(OCC(=O)Nc2ccccc2N2CCCCC2)c1C | inconclusive: 12.3%
CCN(CC)CCN1CCn2c3c(c4cc(C)ccc42)CCCC31 (stereo not drawn) | inactive: -1.08%
CSCCC(NC(=O)c1ccccc1)C(=O)Nc1ccc(NC(C)=O)cc1 (stereo not drawn) | inconclusive: 14.9%
CON(C)C(=O)CC(CN(Cc1ccccc1)C(=O)OC(C)(C)C)c1ccc(Cl)cc1 (stereo not drawn) | inconclusive: 19%
Cc1cccc(NC(=O)c2ccc(Cl)c(NC(=O)c3ccncc3)c2)c1C | inconclusive: 20.8%
CC(=O)C1=C(O)C(=O)N(Cc2ccccc2)C1c1cccs1 (stereo not drawn) | inconclusive: 18.9%
CCCCCC(=O)N1CCN(S(=O)(=O)c2ccc3c(c2)OCCO3)CC1 | inconclusive: 15.7%

Structure (SMILES) | inhibition
N#Cc1c(NC(=O)c2ccc(-c3ccccc3[N+](=O)[O-])o2)sc2c1CCCC2 | inconclusive: 24.1%
CN/N=C/c1ccc(C#N)cc1 | inconclusive: 17.6%
O=C(CCN1CCCCC1)c1ccc2c(c1)OCCO2 | inactive: 0.892%
Cc1cccc(CC2S/C(=N/c3ccccn3)NC2=O)c1 (stereo not drawn) | inconclusive: 48.9%
CCC(/C=C1\Sc2ccc(OC)cc2N1CCO)=C\c1sc2ccc(OC)cc2[n+]1CCO | inconclusive: 15.6%
O=C(NCCOc1ccc(F)cc1)C1CCC(=O)N(CC2CCCCC2)C1 (stereo not drawn) | inconclusive: 13.3%
O=S(=O)(Nc1ccc2c(c1)OCCO2)c1cccc2cccnc12 | inconclusive: 14%
CCOC(=O)c1ccc(N2CSC3=C(C#N)C(c4ccc(OC)cc4OC)CC(=O)N3C2)cc1 (stereo not drawn) | inconclusive: 23.6%
Cc1ccc(-n2c(C)nc3ncnc(-c4ccccc4)c32)cc1 | inconclusive: 20.2%
COc1ccc(/C=N/NC(=O)c2ccc(N(C)S(=O)(=O)c3ccccc3)cc2)cc1 | inconclusive: 13.5%
CC1CCN(CCCNC(=O)c2ccc3c(Cl)c4c(nc3c2)CCCC4)CC1 | inconclusive: 13.6%
C=CC[C@H](CC(=O)N(CCO)Cc1ccccc1)C(=O)NC[C@H](OC(=O)[C@@H](CC=C)CC(=O)OC(C)(C)C)c1ccccc1 | active: 31.2%
CC(C(=O)NCCc1nc2ccccc2[nH]1)n1cc([N+](=O)[O-])cn1 (stereo not drawn) | inconclusive: 13%
Cc1ccc2c(c1C)NC(C(=O)O)C1CC=CC21 (stereo not drawn) | inconclusive: 12.4%
Cc1ccc(S(=O)(=O)N2CCOCC2)cc1NC(=O)CNCc1ccc(Cl)cc1Cl | inconclusive: 16.1%
CC(Oc1ccc(Br)cc1)C(=O)NCC(c1cccs1)N1CCOCC1 (stereo not drawn) | inactive: -5.15%
O=C(CCC(=O)c1cccs1)NC(c1ccccc1)c1ccccc1 | inconclusive: 20.7%
COc1ccc(/C=N/N2C(=O)C3C4C=CC(CC4)C3C2=O)c(OC)c1 (stereo not drawn) | inconclusive: 19.3%
CCOC(=O)CC(=O)CSc1ccc2nnc(-c3ccccc3)n2n1 | inconclusive: 25.7%
Cc1ccc(CNS(=O)(=O)c2cc3c4c(c2)C(C)C(=O)N4CCC3)cc1 (stereo not drawn) | inconclusive: 22.1%
COc1ccc(CC(=O)Nc2c3c(nn2-c2cccc(C)c2C)CS(=O)C3)cc1 (stereo not drawn) | inconclusive: 21%
CC(C(N)=O)N1C(=O)c2cccc3cccc1c23 (stereo not drawn) | inconclusive: 36.1%

Ordered by length of the SMILES (rising): some entries from above
Structure (SMILES) | inhibition
O=C(CCN1CCCCC1)c1ccc2c(c1)OCCO2 | inactive: 0.892%
CC(C(N)=O)N1C(=O)c2cccc3cccc1c23 (stereo not drawn) | inconclusive: 36.1%
CC1CCN(CCCNC(=O)c2ccc3c(Cl)c4c(nc3c2)CCCC4)CC1 | inconclusive: 13.6%
N#Cc1c(NC(=O)c2ccc(-c3ccccc3[N+](=O)[O-])o2)sc2c1CCCC2 | inconclusive: 24.1%
C=CC[C@H](CC(=O)N(CCO)Cc1ccccc1)C(=O)NC[C@H](OC(=O)[C@@H](CC=C)CC(=O)OC(C)(C)C)c1ccccc1 | active: 31.2%

More compounds:

Structure (SMILES) | inhibition
CCn1c(CCNC(=O)c2cccs2)nnc1SCC(=O)c1ccc(OC)cc1 | active: 26.6%
COc1ccc(CCN2C(=O)c3cccnc3C2=O)cc1OC | inconclusive: 23.8%
NS(=O)(=O)c1ccc(N/N=C2/CCCCC2C2CCCCC2)c([N+](=O)[O-])c1 (stereo not drawn) | inconclusive: 17%
CC(C)(CO)C(O)C(=O)NCCCO (stereo not drawn) | inactive: 4.05%
C[C@H](CO)N1C[C@H](C)[C@@H](CN(C)Cc2ccccc2)Oc2ccc(NC(=O)CCCCCC(=O)Nc3ccccc3N)cc2C1=O | active: 74.8%
CCN(CC)c1ccc(NC(=O)Nc2cccc(C(C)=O)c2)cc1 | inactive: -3.28%
CN(C)C(=O)CN1C(=O)NC(c2ccccc2)(c2ccccc2)C1=O | inconclusive: 12%
C=CCn1cc(Cl)c(=O)n(CC=C)c1=O | inconclusive: 15%
CCCC(=O)c1ccc(N2CCN(S(=O)(=O)c3ccccc3)CC2)c(F)c1 | inconclusive: 18.5%
Cc1cccc(NC(=O)Cn2cnc3c(oc4ccccc43)c2=O)c1C | inconclusive: 55.5%
COc1ccc(C(=O)n2nc(-c3ccco3)nc2N)cc1 | active: 84.1%
CC(Nc1nc(-c2ccc3c(c2)NC(=O)CO3)cs1)c1ccccc1 (stereo not drawn) | active: 35.6%
O=S(=O)(Nc1nc2cc3c(cc2nc1Cl)OCCO3)c1ccccc1 | inactive: -14%
COc1ccc(-c2ccc(S(=O)(=O)n3nc(OC(=O)c4cccs4)cc3N)cc2)cc1 | inconclusive: 28.7%
O=C(COC(=O)c1ccccc1Oc1ccccc1)NCc1ccco1 | inconclusive: 23.9%
CCCCc1ccc(NC(=O)N[C@H](C(=O)O)C(C)CC)cc1 (stereo partly drawn) | inconclusive: 20.2%
O=C(CCc1ccccc1)NNC(=O)c1ccncc1 | inconclusive: 18.5%
Cc1ccc(CN2[C@@H](c3ccccc3)COCCS2(=O)=O)cc1 | inconclusive: 15.9%
COc1cccc(NC(=O)C(=O)NCCCn2ccnc2)c1 | inconclusive: 17.4%
Cc1cc(-c2ccc(C(C)C)c(S(=O)(=O)N3CCN(c4ccccn4)CC3)c2)on1 | inactive: 4.15%
CCCCN(C)CCNC(=O)CN1C(=O)CSc2ccc(S(=O)(=O)N3CCOCC3)cc21 | inconclusive: 24.1%
CN(C)CCCNC(=S)Nc1ccc(Oc2ccccc2)cc1 | inactive: -1.82%

Structure (SMILES) | inhibition
CCc1ccc(NC(=O)c2sc3nc4n(c(=O)c3c2C)CCC4)cc1 | inconclusive: 20.6%
O=[N+]([O-])c1ccc(-c2nnc(-c3ccccc3)c(N3CCOCC3)n2)cc1 | inactive: 1.53%
Cc1nc(C/C(=N\Nc2ccccc2)c2ccc(O)cc2O)cs1 | inconclusive: 12.1%
CCn1ncc(-c2cc(C(=O)O)no2)c1C | active: 47.2%
CC1CCN(C(=O)c2ncn(C)c2C(=O)N2CCC(C)CC2)CC1 | inactive: 5.75%
COc1cccc(C(=O)n2c(SC)nc3cc4c(cc32)OCCO4)c1 | active: 92%
Cc1cc(C)c(C2C(C#N)=C(N)Oc3n[nH]c(C)c32)cc1CN1CCCC1 (stereo not drawn) | inconclusive: 22.7%
COc1cc(SC)ccc1C(=O)Nc1cc(C)ccn1 | inconclusive: 22%
CC(=O)N1CC(=O)N=C1SCC(=O)Nc1nc(-c2ccccc2)c(-c2ccccc2)s1 | active: 28.5%
CCOc1cc2c3c(c1)C1(C(=O)N3C(C)(C)CC2C)C(C#N)=C(N)N2C(=C1C#N)Nc1ccccc12 (stereo not drawn) | inactive: -1.79%
COc1ccc(Cc2n[nH]c(=O)c3ccccc23)cc1OC | inactive: 3.19%
COc1cc(NC(=O)c2ccc(N)nc2)cc(C(=O)Nc2cccc(C(F)(F)F)c2)c1 | inconclusive: 23.1%
COCC(=O)OCn1nnc2ccccc2c1=O | inconclusive: 12.9%
CCN(CC)C(=O)c1ccc(NS(=O)(=O)c2ccc3[nH]c(=O)[nH]c3c2)cc1 | inactive: -16.7%
O=C1C(=O)N(CC2CCCO2)C(c2ccccc2[N+](=O)[O-])/C1=C(/O)c1ccccc1 (stereo not drawn) | inconclusive: 18.2%
Cc1ccc(C(=O)NCCc2nnc3c(C(F)(F)F)cc(Cl)cn23)o1 | inconclusive: 21.2%
O=S(=O)(c1ccccc1)N1CCN=C1SCc1cccnc1 | inactive: -3.21%
CSCCC(NC(=O)c1ccco1)C(=O)N1CCC(C(N)=O)CC1 (stereo not drawn) | inconclusive: 19%
COc1cc(C(=O)Oc2cc(C)cc(C)c2)cc(OC)c1OC | inconclusive: 19.3%
Cc1cc(=O)[nH]c(N/N=C/c2ccco2)n1 | inconclusive: 48.1%
CCCOc1ccc(C(=O)N/N=C/c2ccc(-c3ccc(S(=O)(=O)Nc4ncccn4)cc3)o2)cc1 | inconclusive: 13.5%
Cc1cc(SCC(=O)NC(=O)NCc2ccco2)nc2c(C)cccc12 | inconclusive: 19.3%
